According to patent publication US10590466B2, “Plant based dye for staining of biological samples, extraction method and uses thereof” (Fathima Benazir Jahangir Ali, priority 2015, dated 2020):
At least one structure is not confirmed: it was looked up by name or label, or the drawing left a doubt.

What was measured:
[1] = test system: DNA ladder; experiment: Nucleic acid staining activity: fluorescence aided visualization of DNA ladder; settings: DNA 25-50 ng; 1 mM brazilein; EtBr 50 μg/50 ml of staining volume
[2] = Concentration dependent fluorescence of brazilein extracts and EtBr; type: physicochemical

## CC[n+]1c(-c2ccccc2)c2cc(N)ccc2c2ccc(N)cc21 [EtBr, ethidium bromide]
[1]
  staining of DNA concentrations of 25-50 ng: not stained
[2]; concentration 1 μM
  Fluorescence intensity (AU): <20 AU
[2]; concentration 5 μM
  Fluorescence intensity (AU): ~60 AU
[2]; concentration 10 μM
  Fluorescence intensity (AU): ~10 AU
[2]; concentration 15 μM
  Fluorescence intensity (AU): ~180 AU
[2]; concentration 20 μM
  Fluorescence intensity (AU): ~230 AU
